Results as given in paper PMC11538350, “Synthetic studies on the tetrasubstituted D-ring of cystobactamids lead to potent terephthalic acid antibiotics” (Communications Chemistry, 2024).

Test system: recombinant AlbD
Test: AlbD enzyme assay (stability towards AlbD-mediated degradation)
Assay type: biochemical
Conditions: 120 µM cystobactamid, 5 µM recombinant AlbD, phosphate buffer pH 7.0, 28°C, incubation overnight (24 h), LC/MS/UV

C#CC[C@H](NC(=O)c1ccc(NC(=O)c2ccc(C#N)cc2)cc1)C(=O)Nc1ccc(C(=O)Nc2ccc(C(=O)Nc3ccc(C(=O)O)cc3)c(O)c2CC(C)C)cc1 [Cmpd. 11]
stability towards AlbD (degradation / cleavage): reduced cleavage

C#CC[C@H](NC(=O)c1ccc(NC(=O)c2ccc(C#N)cc2)cc1)C(=O)Nc1ccc(NC(=O)c2ccc(C(=O)Nc3ccc(C(=O)O)cc3)c(O)c2OC(C)C)cc1 [Cmpd. 42]
stability towards AlbD (degradation / cleavage): fully stable

CC(C)Oc1c(NC(=O)c2ccc(NC(=O)[C@H](CC(N)=O)NC(=O)c3ccc(NC(=O)c4ccc(C#N)cc4)cc3)cc2)ccc(C(=O)Nc2ccc(C(=O)O)cc2)c1O [compound 96, reference compound]
stability towards AlbD (degradation / cleavage): degraded
